In paper PMC11867528 one finds binding data, which are given here for 2 molecules.

By UniProt entry, the sequences of proteins in these tests, tags left out.
UniProt P12504: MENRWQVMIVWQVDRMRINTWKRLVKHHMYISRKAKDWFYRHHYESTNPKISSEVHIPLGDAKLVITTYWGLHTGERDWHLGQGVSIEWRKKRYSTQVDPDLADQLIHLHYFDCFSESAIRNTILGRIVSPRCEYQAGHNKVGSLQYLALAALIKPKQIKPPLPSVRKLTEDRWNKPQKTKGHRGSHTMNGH
UniProt Q9HC16: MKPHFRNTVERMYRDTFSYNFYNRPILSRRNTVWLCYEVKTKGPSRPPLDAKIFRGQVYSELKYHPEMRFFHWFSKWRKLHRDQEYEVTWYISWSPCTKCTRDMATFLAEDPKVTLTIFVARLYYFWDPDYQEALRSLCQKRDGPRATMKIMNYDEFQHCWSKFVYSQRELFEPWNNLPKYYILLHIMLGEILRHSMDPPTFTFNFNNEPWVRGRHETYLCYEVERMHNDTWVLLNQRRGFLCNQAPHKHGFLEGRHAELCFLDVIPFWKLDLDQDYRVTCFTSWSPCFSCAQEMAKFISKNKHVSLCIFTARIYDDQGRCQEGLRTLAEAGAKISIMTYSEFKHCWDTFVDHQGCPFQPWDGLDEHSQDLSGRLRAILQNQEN

For experiment [1], the target named is T1, DDX52 (DExD-box helicase 52) (human (endogenous in Jurkat J6)) (UniProt Q9Y2R4).
T1 sequence: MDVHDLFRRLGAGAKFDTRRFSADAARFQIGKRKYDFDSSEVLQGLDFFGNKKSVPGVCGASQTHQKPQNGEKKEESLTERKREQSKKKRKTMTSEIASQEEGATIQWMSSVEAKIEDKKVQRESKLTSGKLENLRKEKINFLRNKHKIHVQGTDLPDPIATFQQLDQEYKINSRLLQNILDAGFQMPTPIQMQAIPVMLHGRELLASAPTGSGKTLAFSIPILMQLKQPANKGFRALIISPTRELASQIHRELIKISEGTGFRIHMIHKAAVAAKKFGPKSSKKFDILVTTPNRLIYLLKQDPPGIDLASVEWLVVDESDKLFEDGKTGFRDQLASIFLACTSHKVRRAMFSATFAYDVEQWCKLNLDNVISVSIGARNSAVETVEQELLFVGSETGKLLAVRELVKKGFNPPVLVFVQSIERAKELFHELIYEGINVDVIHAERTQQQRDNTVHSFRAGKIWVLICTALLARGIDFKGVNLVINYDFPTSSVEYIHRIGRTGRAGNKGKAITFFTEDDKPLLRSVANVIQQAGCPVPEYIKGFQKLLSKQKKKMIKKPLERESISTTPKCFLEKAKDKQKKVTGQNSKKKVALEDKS
As to the kind of experiment: co-IP; Jurkat J6 cells infected with HIV-1 NL4.3 at 0.5 MOI, harvested 48 hpi; lysates precleared with IgG, primary antibody (DDX52, Vif or A3G) overnight at 4 °C, Agarose A/G beads 4 h; washed thrice with 0.1% NP40 in 1X PBS; immunoblot.

A further experiment has as its target MBP-Vif (HIV-1) (UniProt P12504). Description: pull-down; MBP-Vif bound to MBP affinity resin, incubated with purified GST or GST-DDX52 for 6 h at 4 °C; washed thrice with 0.1% NP40 in 1X PBS; eluted with MBP elution buffer; immunoblot with GST and MBP antibodies; both purified.

Results are given in words; binding and its absence hold for the method and conditions named. For some assays here: In cells and extracts the contact can be indirect. Some binding calls cover weakened binding; strength is not graded here. For some assays here: Tags and fused reporters may be left off the sequences shown.

In the case of APOBEC3G (from UniProt Q9HC16 1-384), in experiment [1], the binding entry was “binds”.

B1: GST-DDX52 (protein, UniProt Q9Y2R4 1-599)
chain: T1 sequence
With B1, the binding entry with MBP-Vif (HIV-1) is recorded as “binds”.
